This assay can be described thus: qHTS Assay for Lipid Storage Modulators in Drosophila S3 Cells.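 For cell number change: cells counted by Cell Tracker Red CMTPX staining in the red channel.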 The note with it: BODIPY lipid droplet fluorescence, 18-24 h; for cell number change: measured here: cell count max response, cells fed with added oleic acid. The procedure, abridged:
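Drosophila S3 cells loaded with oleic acid (400 uM, as added) and compounds at several concentrations; lipid droplets imaged by 488-nm laser-scanning cytometry, 500–530 nm intensity and object ratio to cell channel. Percent activity normalized to 20 uM Triacsin C.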

Where [1] appears, read: measured here: lipid fluorescence (Fed channel) AC50, cells fed with added oleic acid.
The mark [2] stands for this setting: measured here: cell number channel AC50, cells fed with added oleic acid.

The source of these data is PubChem BioAssay AID2685 (National Center for Advancing Translational Sciences (NCATS), 2010).

This is one part of the list. Shown are side measurements of this screen, not its main read-out; they come without a call. The list favours compounds with an active or inconclusive main result. Potencies come from curve fits of mixed quality, noted in brackets.

What is called AC50 is the concentration at which the activity in the assay is half-maximal. Low values mean activity at low concentration, high ones activity only at high concentration.

Regarding `Cc1cc(C)nc(SCc2ccc(C(=O)N/N=C3\CCCC(=O)C3)cc2)n1`, the AC50 under setting [1] was 29.1 µM [rising, single point].

For `Cc1cccc(SCC(=O)Nc2ccc3c(c2)OCCO3)c1`, the cell number change came out at 8.33%. Further, the AC50 under setting [1] was 1.12 µM [rising, full curve, poor fit].

With `CC1CCCC(NC(=O)C2CCCN2S(=O)(=O)c2cccc3nsnc23)C1C` (stereo not given), the cell number change is 27.1%. For the same molecule, the AC50 under setting [1] was 16.4 µM [rising, single point].

For the molecule `O=C(Cc1c(Cl)cccc1Cl)OCC(=O)N1CCN(C(=O)c2ccco2)CC1`, the AC50 under setting [2] was 0.146 µM [falling, single point] and the AC50 under setting [1] was 0.13 µM [falling, single point].

For `CCS(=O)(=O)N1CCN(C(=O)c2ccco2)CC1`, the cell number change was -20.9%. Further, under setting [1], the AC50 was 4.11 µM [falling, full curve].

As to `CCN(CC)C(=O)c1sc(NC(=O)c2ccc(C)c([N+](=O)[O-])c2)c(C#N)c1C`, the cell number change turned out to be 92.9%. In addition, the AC50 under setting [1] is 18.4 µM [rising, single point].

Take `COc1ccc(CCNC(=O)CSCc2n[nH]c(=O)[nH]2)cc1OC`: the cell number change was -29.1%. In addition, the AC50 under setting [1] is 29.1 µM [falling, single point].

Take `CC1(C)NC(=O)N(CCCCOc2ccc(Br)cc2Cl)C1=O`: the cell number change is -3.44%. Moreover, the AC50 under setting [1] is 0.116 µM [rising, full curve].

Regarding `COc1ccc(OC)c(C(=O)CSc2nnc(Cc3cccs3)n2CCc2ccccc2)c1`, the cell number change was -35%. Under setting [2], the AC50 was 9.2 µM [falling, single point].

For `C=CCn1c(O)c(CN2CCCCC2)c(C)c(C#N)c1=O`, the cell number change is -98.2%. Moreover, the AC50 under setting [2] was 23.1 µM [falling, partial curve]. For the same molecule, under setting [1], the AC50 was 6.51 µM [falling, partial curve, poor fit].

On to `N#Cc1cc([N+](=O)[O-])cnc1N(CCO)CCO`, for which the cell number change was found to be 47.2%. Further, the AC50 under setting [2] was 6.51 µM [rising, single point].

With `CCc1nnc(NC(=O)CSc2nnc(-c3cc4ccccc4cc3O)n2CCOC)s1`, the cell number change was -9.54%.

Consider `COCCN(CCOC)C(=O)c1cc2c(=O)n3ccccc3nc2s1`, for which the cell number change was -0.886%. Moreover, under setting [1], the AC50 is 2.91 µM [rising, partial curve].

Regarding `O=C1CN(C(=O)CSc2nncn2-c2ccccc2)c2ccccc2N1`, the cell number change was -5.58%.

For `Cc1cc2c3c(c1)C1(C(=O)N3C(C)(C)CC2C)C(C#N)=C(N)Oc2cc(O)ccc21` (stereo not given), the cell number change amounted to 20.5%.

On to `CCOC(=O)CSc1ccc(S(=O)(=O)N(C)C2CCCCC2)cc1[N+](=O)[O-]`, for which the AC50 under setting [1] is 0.82 µM [falling, full curve, poor fit].

Turning to `CC(C)C(=O)Nc1cccnc1`, the cell number change stood at 2.89%.

In the case of `Cc1ccc(N2C(=O)C3C4CCC(O4)C3C2=O)c(OC(F)F)c1` (stereo not given), the cell number change came to 18.3%. Further, under setting [1], the AC50 is 0.731 µM [falling, single point].

On to `CCn1nnnc1Oc1ccc(Cl)cc1`, for which the cell number change was -78.4%. Further, under setting [2], the AC50 is 20.6 µM [falling, single point].

With `O=[N+]([O-])c1cc([N+](=O)[O-])c(Oc2cc(F)cc(F)c2)cc1NN1CCCCC1`, the cell number change was -16.5%. Also, the AC50 under setting [1] is 25.9 µM [falling, partial curve, poor fit].

For `COc1ccc(CCNc2ccc(C(CC(N)=O)NC(=O)Cc3cccc4ccccc34)cc2[N+](=O)[O-])cc1` (stereo not given), the cell number change was found to be 20.6%. Also, the AC50 under setting [1] is 8.2 µM [rising, partial curve, poor fit].

Regarding `COc1ccc(OCCCC(=O)Nc2cc([N+](=O)[O-])ccc2C)cc1`, under setting [1], the AC50 was 0.82 µM [falling, single point].

In the case of `COc1cc(/C=N/O)cc(Br)c1OCC(=O)NCc1ccccc1`, the cell number change was determined as 31.5%. Moreover, the concentration at half-maximal activity (AC50) under setting [2] is 32.6 µM [rising, single point]. For the same molecule, the AC50 under setting [1] is 29.1 µM [rising, single point].

Consider `O=C(c1ccc([N+](=O)[O-])cc1)N(C1=NCCCCS1)c1ccccc1`, for which the cell number change was 54.6%. The AC50 under setting [2] is 18.4 µM [rising, partial curve].

In the case of `CSc1ccccc1NC(=O)CN(C)C(=O)C1CC(=O)N(C(C)c2ccccc2)C1` (stereo not given), the cell number change was -38.2%. The half-maximal activity concentration (AC50) under setting [2] was 29.1 µM [falling, single point].

`O=C(CCc1nc2ccccc2c(=O)[nH]1)Nc1ccc(Cl)c(Cl)c1`: the cell number change is 31.9%. The AC50 under setting [2] is 20.6 µM [rising, partial curve].

Take `O=C1NC2(CCCCC2)C(=O)N1CCS(=O)(=O)Oc1ccc(Br)cc1`: the cell number change was -14%. Besides, under setting [2], the AC50 was 6.51 µM [falling, single point]. In addition, the AC50 under setting [1] was 6.51 µM [falling, partial curve, poor fit].

In the case of `C=CCSc1nsc(NC(=O)Nc2cccc(C(C)=O)c2)n1`, the cell number change was -23.1%.

Turning to `O=C(Nc1ccc(NC(=O)C2CC2)cc1)c1ccco1`, the cell number change was -11.1%.

For `CC1CC(C)CN(C(=O)c2cc3cc(Br)cc(Br)c3o2)C1` (stereo not given), the cell number change was 41.3%. In addition, the AC50 under setting [2] was 1.64 µM [rising, full curve].

With `Cc1ccccc1S(=O)(=O)Nc1nc2ccccc2nc1NCCO`, the AC50 reads like this: under setting [2], 7.31 µM [falling, single point]; under setting [1], 4.61 µM [falling, single point].

Regarding `Cn1nc(C(=O)NC2CCC(O)CC2)c2ccccc2c1=O` (stereo not given), the cell number change worked out at 17.9%. Besides, the AC50 under setting [1] was 4.11 µM [rising, partial curve, poor fit].

On to `CC(CCc1ccccc1)N(C)CC(O)c1cccc([N+](=O)[O-])c1` (stereo not given), for which the cell number change was found to be 13%.

For the molecule `Cn1c(=O)c2c(SCC(=O)N3CCCC3)nc(-c3ccccc3)nc2n(C)c1=O`, the cell number change is -36.2%. The AC50 under setting [2] is 23.1 µM [falling, single point]. In addition, the AC50 under setting [1] is 9.2 µM [falling, partial curve].

Regarding `COc1ccc(NC(=O)CCOc2ccccc2)cc1`, the cell number change was found to be 17.2%. For the same molecule, the AC50 under setting [2] was 0.116 µM [rising, full curve].

On to `Cc1cc(C)cc(C(=O)NC(CC(N)=O)c2ccc(NC3CCCC3)c([N+](=O)[O-])c2)c1` (stereo not given), for which the AC50 was 3.26 µM [rising, partial curve] under setting [2] and 5.17 µM [rising, full curve] under setting [1].

Turning to `COc1cc(CCc2ccc3c(c2)OCO3)oc(=O)c1`, the cell number change was -72.3%. For the same molecule, the AC50 under setting [2] was 29.1 µM [falling, single point].

Turning to `COc1cc(OC)cc(C(=O)NNC(=O)c2ccc(S(=O)(=O)N3CC(C)OC(C)C3)cc2)c1` (stereo not given), the cell number change was -19.5%. Further, the AC50 under setting [2] is 0.0326 µM [falling, full curve, poor fit]. The AC50 under setting [1] was 0.00461 µM [falling, full curve, poor fit].

On to `CCOC(=O)C1CCN(S(=O)(=O)c2c(C)n(C)c(=O)n(C)c2=O)CC1`, for which the cell number change is -86.9%. Moreover, the AC50 under setting [2] is 6.51 µM [falling, full curve]. Moreover, the AC50 under setting [1] is 6.51 µM [falling, full curve].

For the molecule `CCc1cc(=O)oc2cc(OCC(=O)N3CCC(C(=O)O)CC3)ccc12`, the cell number change is 13.8%.

Take `O=C(Nc1cnn(Cc2ccc(Cl)c(Cl)c2)c1)C12CC3CC(CC(C3)C1)C2`: the cell number change is -36.5%. Moreover, the AC50 under setting [2] is 29.1 µM [falling, single point]. In addition, the AC50 under setting [1] is 18.4 µM [falling, single point].

For the molecule `Cc1cccc[n+]1CC(=O)/C=C1\N(C)c2ccccc2C1(C)C`, the cell number change is -53.2%. Moreover, the AC50 under setting [2] is 29.1 µM [falling, single point]. Further, under setting [1], the AC50 is 23.1 µM [falling, single point].

`CN1CCN(S(=O)(=O)c2ccc(N(C)Cc3cccs3)nc2)CC1`: the cell number change was -24.7%. Moreover, the AC50 under setting [1] was 4.11 µM [rising, full curve].

With `O=C(O)c1cccc(S(=O)(=O)Nc2ccc(OCc3ccccc3)cc2)c1`, the cell number change stood at 40.1%. In addition, the AC50 under setting [2] is 3.66 µM [rising, full curve].

For the molecule `Cn1c(CNC(=O)c2ccco2)nnc1SCC(=O)N1CCN(c2ccccc2)CC1`, the cell number change came out at 16.7%.

As to `Cc1cc(C)cc(NC(=S)N2CCC(NC(=O)c3ccco3)CC2)c1`, the cell number change was determined as 31.5%. Further, under setting [2], the AC50 was 0.0092 µM [rising, full curve, poor fit].

Regarding `Cc1ccccc1OCC(=O)Nc1ccncc1`, the cell number change is -48.1%. Moreover, under setting [2], the AC50 is 5.17 µM [falling, partial curve].

In the case of `COc1ccccc1CCNC(=O)c1ccc(OC)c(OC2CCN(C(C)C)CC2)c1`, the cell number change came out at 15.9%. In addition, the AC50 under setting [1] is 18.4 µM [rising, partial curve].

For the molecule `O=C(COc1ccc(S(=O)(=O)N2CCCC2)cc1Cl)NC1CCCC1`, the cell number change was found to be 4.41%. Besides, under setting [1], the AC50 is 18.4 µM [rising, partial curve].

As to `CC(C)C(C(=O)NCc1ccco1)N(Cc1ccco1)C(=O)CNS(=O)(=O)c1ccccc1` (stereo not given), the cell number change was -6.41%.

As to `Cc1ccc(S(=O)(=O)N(C)/N=C2/C(=O)N(CC(=O)O)c3ccccc32)cc1`, the cell number change is 19.6%. Also, under setting [1], the AC50 was 0.517 µM [falling, single point].

For the molecule `Cc1ccc(S(=O)(=O)NCCCNS(=O)(=O)c2ccccc2[N+](=O)[O-])cc1`, the cell number change was determined as 15.5%. Under setting [1], the AC50 is 29.1 µM [rising, single point].

With `O=C(CN1CCOC1=O)N1CCCC(Nc2ccc(F)c(F)c2)C1` (stereo not given), the cell number change worked out at 19.8%. The AC50 under setting [1] was 6.51 µM [rising, single point].

For `CN1C(=S)SC(/[N+]([O-])=C\c2ccc(Cl)cc2)C1(C)C` (stereo not given), the cell number change was -12.9%. Also, the AC50 under setting [1] is 11.6 µM [falling, single point].

`CSc1ccc(Cl)c(C(=O)Nc2ccc(N3CCOCC3)cc2)c1`: the cell number change came to 9.97%. In addition, the AC50 under setting [1] is 6.51 µM [rising, single point].

As to `COc1ccccc1C(=O)NC(=S)N1CCCc2ccccc21`, the concentration at half-maximal activity (AC50) under setting [2] was 2.06 µM [falling, partial curve, poor fit].

Consider `COc1ccccc1C(=O)NCCC(=O)N1CCN(c2ccc(C(F)(F)F)cn2)CC1`, for which the cell number change was -37.1%. The AC50 under setting [2] was 23.1 µM [falling, partial curve]. Moreover, under setting [1], the AC50 was 0.0164 µM [falling, full curve, poor fit].

With `CC1CCCN(C(=O)CN2C(=O)NC3(CCCCC3C)C2=O)C1` (stereo not given), the cell number change worked out at 10.8%. Further, under setting [1], the AC50 is 29.1 µM [rising, single point].

For the molecule `CCOC(=O)C(Cc1ccccc1)NC(=O)CCc1nnc2ccc(N3CCCC3)nn12` (stereo not given), the cell number change came out at 6.49%. Moreover, the AC50 under setting [1] is 2.31 µM [rising, partial curve].

For `COCCN1C(=O)N(c2cccc(OC)c2)C(=O)C1CC(=O)Nc1cccc(F)c1` (stereo not given), the cell number change was found to be 19.3%. Under setting [1], the AC50 was 3.66 µM [rising, full curve].
